Earlier results as cited in patent publication US8975259B2, “Compositions and methods for inhibiting G protein signaling” (University of Rochester, priority 2007, dated 2015).
Structures were worked out from names or drawings and are uncertain.

The chains behind the UniProt entries cited, without tags or fusion partners. Residues count along the entry.
UniProt P54311, whole entry: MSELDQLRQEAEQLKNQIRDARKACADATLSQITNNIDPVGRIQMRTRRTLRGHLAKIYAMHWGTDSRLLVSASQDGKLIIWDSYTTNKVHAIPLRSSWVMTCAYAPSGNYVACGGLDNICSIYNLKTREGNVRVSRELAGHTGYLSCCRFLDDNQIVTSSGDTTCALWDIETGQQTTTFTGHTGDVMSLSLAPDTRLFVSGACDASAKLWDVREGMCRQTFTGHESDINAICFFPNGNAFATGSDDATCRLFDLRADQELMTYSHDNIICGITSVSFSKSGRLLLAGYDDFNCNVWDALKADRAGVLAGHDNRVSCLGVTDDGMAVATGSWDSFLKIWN
UniProt P63212, 2-68 limits assumed: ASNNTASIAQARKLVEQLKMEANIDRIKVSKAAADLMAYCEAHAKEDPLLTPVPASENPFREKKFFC

Molecular target: Gβ1γ2 (UniProt P54311+P63212)
Details: read-out: IC50 ELISA; Table 20, competition ELISA for SIGK binding; data from Bonacci et al. (2006); cited from earlier work

**Q.** Which IC50 does the source give for `O=C(O)C1CC=CCC1c1c2ccc(=O)cc-2oc2cc(O)ccc12` (stereo not shown) here?
**A.** 70 µM
